PubChem BioAssay AID1259405 | NCATS, 2018
Purpose: 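Silenced genes that increase secreted GFP made by CHO cells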 (primary screen). Cell system: Chinese hamster CHO-K1 ovary cells with stable secreted eGFP expression. Reagent: single siRNA against mouse genes, 0.8 pmol siRNA per well (2 µl of 400 nM stock). Duration: 3 days. Read-out: 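Per-well intracellular GFP measured by laser scanning cytometry, plus viability from ATP luminescence, each relative to plate median of non-targeting control wells, in %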. Direction: GFP, % of control: higher = more GFP per well, higher productivity; viability (ATP), % of control: higher = more viable cells (more ATP). Rule for the call: 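Called active when intracellular GFP, relative to negative control, is at or above 120%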.
The whole screen tested about 50,000 reagents; this is a part drawn at random. About 4,000 of all reagents (8%) were called active. 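Mouse siRNA library applied to hamster cells; one well for each siRNA.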 Reagents against one gene are numbered here. No sequences are given here.

Against F8 (coagulation factor VIII) #1, the entry reads GFP, % of control 128; viability (ATP), % of control 95.2; active.
Depletion of F8 (coagulation factor VIII) #2 came out at: GFP, % of control 29.7; viability (ATP), % of control 37.5; inactive.
Against F8 (coagulation factor VIII) #3 the deposit lists GFP, % of control 86.1; viability (ATP), % of control 77.6; inactive.
Depletion of Mtag2 (metastasis associated gene 2) #1 resulted in: GFP, % of control 60; viability (ATP), % of control 56.1; inactive.
Depletion of Mtag2 (metastasis associated gene 2) #2 gave: GFP, % of control 57.4; viability (ATP), % of control 81.4; inactive.
Depletion of Mtag2 (metastasis associated gene 2) #3 came out at: GFP, % of control 62.2; viability (ATP), % of control 46.2; inactive.
Knock-down of Ripk1 (receptor (TNFRSF)-interacting serine-threonine kinase 1) came out at: GFP, % of control 86.8; viability (ATP), % of control 60.3; inactive.
Depletion of Cacng5 (calcium channel, voltage-dependent, gamma subunit 5) #1 gave: GFP, % of control 136; viability (ATP), % of control 76.5; active.
Cacng5 (calcium channel, voltage-dependent, gamma subunit 5) #2 showed GFP, % of control 23.3; viability (ATP), % of control 30.7; inactive.
For Cacng5 (calcium channel, voltage-dependent, gamma subunit 5) #3, the entry reads GFP, % of control 71.9; viability (ATP), % of control 85.4; inactive.
After knock-down of Il27 (interleukin 27) #1, the record shows GFP, % of control 98.6; viability (ATP), % of control 104; inactive.
Il27 (interleukin 27) #2 showed GFP, % of control 89.2; viability (ATP), % of control 79.5; inactive.
Against Il27 (interleukin 27) #3, the entry reads GFP, % of control 136; viability (ATP), % of control 52.4; active.
Depletion of Dkk1 (dickkopf WNT signaling pathway inhibitor 1) #1 resulted in: GFP, % of control 84.6; viability (ATP), % of control 101; inactive.
Knock-down of Dkk1 (dickkopf WNT signaling pathway inhibitor 1) #2 resulted in: GFP, % of control 99.2; viability (ATP), % of control 103; inactive.
Dkk1 (dickkopf WNT signaling pathway inhibitor 1) #3 scored GFP, % of control 134; viability (ATP), % of control 78.9; active.
Silencing of Castor1 (cytosolic arginine sensor for mTORC1 subunit 1) #1 resulted in: GFP, % of control 148; viability (ATP), % of control 112; active.
After knock-down of Castor1 (cytosolic arginine sensor for mTORC1 subunit 1) #2, the record shows GFP, % of control 79.5; viability (ATP), % of control 103; inactive.
With knock-down of Castor1 (cytosolic arginine sensor for mTORC1 subunit 1) #3, the screen gave GFP, % of control 152; viability (ATP), % of control 126; active.
Silencing of Castor1 (cytosolic arginine sensor for mTORC1 subunit 1) #4 resulted in: GFP, % of control 93.4; viability (ATP), % of control 92.4; inactive.
Against Castor1 (cytosolic arginine sensor for mTORC1 subunit 1) #5, the entry reads GFP, % of control 143; viability (ATP), % of control 87.5; active.
Against Castor1 (cytosolic arginine sensor for mTORC1 subunit 1) #6 the deposit lists GFP, % of control 94.2; viability (ATP), % of control 115; inactive.
Depletion of Cby1 (chibby family member 1, beta catenin antagonist) #1 gave: GFP, % of control 74.9; viability (ATP), % of control 62.6; inactive.
Silencing of Cby1 (chibby family member 1, beta catenin antagonist) #2 resulted in: GFP, % of control 69.4; viability (ATP), % of control 75.4; inactive.
After knock-down of Cby1 (chibby family member 1, beta catenin antagonist) #3 the results were GFP, % of control 79; viability (ATP), % of control 59.5; inactive.
Ang2 (angiogenin, ribonuclease A family, member 2) #1 showed GFP, % of control 82.5; viability (ATP), % of control 83.8; inactive.
Knock-down of Ang2 (angiogenin, ribonuclease A family, member 2) #2 came out at: GFP, % of control 66.4; viability (ATP), % of control 56.6; inactive.
For Ang2 (angiogenin, ribonuclease A family, member 2) #3, the values are GFP, % of control 92.4; viability (ATP), % of control 95.2; inactive.
With knock-down of Ppargc1a #1, the screen gave GFP, % of control 74.5; viability (ATP), % of control 89.1; inactive.
For Ppargc1a #2, the entry reads GFP, % of control 108; viability (ATP), % of control 107; inactive.
Silencing of Shpk (sedoheptulokinase) gave: GFP, % of control 53.7; viability (ATP), % of control 73.8; inactive.
With knock-down of Amotl2 (angiomotin-like 2) #1 the results were GFP, % of control 88.4; viability (ATP), % of control 62.6; inactive.
With knock-down of Amotl2 (angiomotin-like 2) #2, the record shows GFP, % of control 54.4; viability (ATP), % of control 45.7; inactive.
Amotl2 (angiomotin-like 2) #3 scored GFP, % of control 99.3; viability (ATP), % of control 67.7; inactive.
Silencing of Pde4d (phosphodiesterase 4D, cAMP specific) #1 resulted in: GFP, % of control 126; viability (ATP), % of control 66.3; active.
With knock-down of Pde4d (phosphodiesterase 4D, cAMP specific) #2, the record shows GFP, % of control 86.5; viability (ATP), % of control 74.6; inactive.
After knock-down of Pde4d (phosphodiesterase 4D, cAMP specific) #3, the screen gave GFP, % of control 76.3; viability (ATP), % of control 74; inactive.
For Xlr4c (X-linked lymphocyte-regulated 4C) #1, the values are GFP, % of control 51.5; viability (ATP), % of control 72.1; inactive.
Silencing of Xlr4c (X-linked lymphocyte-regulated 4C) #2 resulted in: GFP, % of control 51.1; viability (ATP), % of control 44; inactive.
Xlr4c (X-linked lymphocyte-regulated 4C) #3 showed GFP, % of control 78.2; viability (ATP), % of control 63.7; inactive.

Reformatted: results already given
Dkk1 (dickkopf WNT signaling pathway inhibitor 1) #1
- GFP, % of control: 84.6
- viability (ATP), % of control: 101
- call: inactive

Dkk1 (dickkopf WNT signaling pathway inhibitor 1) #2
- GFP, % of control: 99.2
- viability (ATP), % of control: 103
- call: inactive
